These are yes or no findings as the source states them, for the method shown. A result given as binding can be weak or reduced; the word gives no strength. For some of these results: Where a sequence is shown, tags or fusion partners need not be part of it. For some of these results: In cells and extracts the contact can be indirect. One block for each substance: values may come before it.
What was measured:
[1] = biological target: T1, FIN219/JAR1, endogenous in Arabidopsis seedlings (Arabidopsis thaliana (endogenous in seedlings)) (UniProt Q9SKE2); assay: co-IP; 2 mg total protein of GUS-CCT1 transgenic or wild-type Col-0 seedlings grown in the dark or blue light with or without MeJA; precipitated with FIN219 monoclonal antibodies, 4°C 4 h; probed with GUS, COP1 or CRY1 polyclonal antibodies
T1 sequence: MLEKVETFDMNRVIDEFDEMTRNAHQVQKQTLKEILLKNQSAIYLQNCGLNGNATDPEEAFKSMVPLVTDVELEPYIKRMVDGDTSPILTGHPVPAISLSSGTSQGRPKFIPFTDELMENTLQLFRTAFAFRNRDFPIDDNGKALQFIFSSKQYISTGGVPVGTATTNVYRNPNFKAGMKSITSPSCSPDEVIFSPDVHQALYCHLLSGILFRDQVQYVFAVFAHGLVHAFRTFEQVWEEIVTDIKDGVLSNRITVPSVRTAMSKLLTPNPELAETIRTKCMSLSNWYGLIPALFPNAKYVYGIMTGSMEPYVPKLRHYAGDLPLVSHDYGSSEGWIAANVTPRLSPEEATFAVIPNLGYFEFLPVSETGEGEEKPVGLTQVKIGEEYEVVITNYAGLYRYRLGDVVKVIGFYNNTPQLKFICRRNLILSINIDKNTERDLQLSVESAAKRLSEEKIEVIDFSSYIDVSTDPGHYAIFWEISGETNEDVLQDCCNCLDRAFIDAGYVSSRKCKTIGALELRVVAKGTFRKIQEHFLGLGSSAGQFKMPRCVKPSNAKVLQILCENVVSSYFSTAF

[2] = biological target: T2, GST-FIN219 (FIN219/JAR1 full-length, recombinant) (Arabidopsis thaliana) (UniProt Q9SKE2); assay: pull-down; 5 ug purified recombinant protein mixed in 500 ul interaction buffer (50 mM Tris-HCl pH 7.5, 10 mM MgCl2, 100 mM NaCl, 1 mM PMSF, 0.04% NP-40), 4°C 1 h; GST fusions held on GSH sepharose; blot probed with antibodies against the CBP-tag; both purified
T2 sequence: T1 sequence

[3] = biological target: T3, YC-FIN219 (full-length FIN219 in 35p-YFP-C84/pRTL2) (Arabidopsis thaliana) (UniProt Q9SKE2); assay: split reporter; BiFC (YFP-N155 / YFP-C84) in Arabidopsis Col-0 mesophyll protoplasts in the dark, without or with 50 uM MeJA
T3 sequence: T1 sequence

[4] = biological target: T3, YC-FIN219 (full-length FIN219 in 35p-YFP-C84/pRTL2) (Arabidopsis thaliana); assay: split reporter; BiFC (YFP-N155 / YFP-C84) in Arabidopsis Col-0 mesophyll protoplasts under blue light (2.2 umol m^-2 s^-1), without or with 50 uM MeJA

- binding [1]: binds
Substance: GUS-CCT1 fusion protein (C terminus of CRY1 fused to GUS) (Arabidopsis thaliana) (domain or fragment)

- binding [2]: binds
Substance: CBP-CCT1 (C terminus of CRY1, recombinant) (Arabidopsis thaliana) (domain or fragment)

- binding [3]: binds
- binding [4]: binds
Substance: CCT1 (C terminus of CRY1) of the BiFC assay (Arabidopsis thaliana) (domain or fragment)
